Test results as given in paper doi:10.1101/388470 (bioRxiv, 2018).
Results are given in words; binding and its absence hold for the method and conditions named. In cells and extracts the contact can be indirect. Some binding calls cover weakened binding; strength is not graded here. Tags and fused reporters may be left off the sequences shown.

Assays:
[1] = target: T1, Cdc45-5FLAG (S. cerevisiae), Q08032; assay: co-sedimentation; conditions: remark: other sources report otherwise
T1 chain: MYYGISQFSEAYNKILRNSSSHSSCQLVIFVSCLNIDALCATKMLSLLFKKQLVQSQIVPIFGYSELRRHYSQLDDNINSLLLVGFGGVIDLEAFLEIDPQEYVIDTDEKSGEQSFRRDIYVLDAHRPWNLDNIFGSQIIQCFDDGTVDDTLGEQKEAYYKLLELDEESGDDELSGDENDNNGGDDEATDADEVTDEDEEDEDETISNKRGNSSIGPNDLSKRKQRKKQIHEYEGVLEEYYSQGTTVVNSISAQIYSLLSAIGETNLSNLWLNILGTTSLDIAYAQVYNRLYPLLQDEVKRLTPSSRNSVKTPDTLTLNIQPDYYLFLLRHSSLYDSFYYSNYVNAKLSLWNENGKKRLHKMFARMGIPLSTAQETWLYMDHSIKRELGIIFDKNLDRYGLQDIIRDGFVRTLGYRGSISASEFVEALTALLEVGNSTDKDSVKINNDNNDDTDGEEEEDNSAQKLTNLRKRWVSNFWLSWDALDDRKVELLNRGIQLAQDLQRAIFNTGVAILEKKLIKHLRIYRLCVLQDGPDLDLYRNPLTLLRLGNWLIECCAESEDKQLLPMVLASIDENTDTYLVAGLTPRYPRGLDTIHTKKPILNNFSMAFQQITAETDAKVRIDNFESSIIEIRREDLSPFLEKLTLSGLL

[2] = target: T1, Cdc45-5FLAG (S. cerevisiae), Q08032; assay: co-IP; conditions: remark: other sources report otherwise
[3] = target: T2, Cdc45-5FLAG (S. cerevisiae) (UniProt Q08032); assay: co-sedimentation
T2 sequence: T1 chain

[4] = target: Psf2-5FLAG (S. cerevisiae) (UniProt P40359); assay: co-IP

B1: Cdc45-5FLAG, Q08032 1-650 (natural protein)
chain: T1 chain
[1]
  binding: binds
[2]
  binding: binds

B2: GINS heterotetramer (Sld5, Psf1, Psf2 and Psf3) (complex, UniProt Q03406;Q12488;P40359;Q12146)
chain 1: MDINIDDILAELDKETTAVDSTKITQGSSSTTHRDANTIVGSSLDLNDKTQIYVSPQQDFSDLMKSWKNERCSPELLPYPHQLMKRLLNRISMQSQLIENISMGFLDMQNASNANPPMPNESKLPLLCMETELERLKFVIRSYIRCRLSKIDKFSLYLRQLNEDENSLISLTDLLSKDEIKYHDTHSLIWLKLVNDSILKYMPEELQAINDTEGSVNMIDEPDWNKFVFIHVNGPPDGKWNEDPLLQENEFGKPCYTVTIPDLKEEVELTIGSIYVMRYEVIRDLLRDDKVALI
chain 2: MYGDLGNKLVLEAKRTKQLYARSNQDVNLPMYHEDIIRNILKEVSNLRKNTEYLKEQQQLGMLDDKVAKCQYFVTLLCMERNKRCLLAYQRLRTDILDSMAWNNNGLDLMSSITFSQQDTNNLSHQEQEYLKEYCDLITDLKSGDLVDIDLSGSLVPPSDVFIDVRVLKDAGEIQTEYGVFNLIKDSQFFVRQSDVERLIQQGYLQKI
chain 3: MSLPAHLQQTFSPEEIQFIVENEPIKIFPRITTRQKIRGDDRGTGNHTRWQLITTDDKALNNMVAMRSTEVVLWIALLLKQQSKCSIVAPQWLTTKELDRKIQYEKTHPDRFSELPWNWLVLARILFNKAKDDFHDPIHELRGKIQDLREIRQIKVLKGLKYLNESHLQLDNLSLLEINELRPFITEIMDKLREIHTASLTAGTENDEEEFNI
chain 4: MGYYDIDDVLADGTEFPCKFQYDIPGLGYLENNPGRPITKNTKLSLPLWLARILAIVGGDEALVDEEPVPFVELLPPDMFSTKVMNAIKTDPVALDLHSINSHFFSLAIKWIMLFSEKELANVVSELLLQRAQELNHHASSLSIDLNADSTGKNSANTNIATSTFLLKLEEMEKEIYKKSHESYKDTKRWMFKK
[3]
  binding: binds

B3: Dpb2 (a subunit of DNA Pol ε) (protein, UniProt P24482 1-689)
chain: MFGSGNVLPVKIQPPLLRPLAYRVLSRKYGLSIKSDGLSALAEFVGTNIGANWRQGPATIKFLEQFAAVWKQQERGLFIDQSGVKEVIQEMKEREKVEWSHEHPIQHEENILGRTDDDENNSDDEMPIAADSSLQNVSLSSPMRQPTERDEYKQPFKPESSKALDWRDYFKVINASQQQRFSYNPHKMQFIFVPNKKQNGLGGIAGFLPDIEDKVQMFLTRYYLTNDRVMRNENFQNSDMFNPLSSMVSLQNELSNTNRQQQSSSMSITPIKNLLGRDAQNFLLLGLLNKNFKGNWSLEDPSGSVEIDISQTIPTQGHYYVPGCMVLVEGIYYSVGNKFHVTSMTLPPGERREITLETIGNLDLLGIHGISNNNFIARLDKDLKIRLHLLEKELTDHKFVILGANLFLDDLKIMTALSKILQKLNDDPPTLLIWQGSFTSVPVFASMSSRNISSSTQFKNNFDALATLLSRFDNLTENTTMIFIPGPNDLWGSMVSLGASGTLPQDPIPSAFTKKINKVCKNVVWSSNPTRIAYLSQEIVIFRDDLSGRFKRHRLEFPFNESEDVYTENDNMMSKDTDIVPIDELVKEPDQLPQKVQETRKLVKTILDQGHLSPFLDSLRPISWDLDHTLTLCPIPSTMVLCDTTSAQFDLTYNGCKVINPGSFIHNRRARYMEYVPSSKKTIQEEIYI
[3]
  binding: binds

B4: Psf2-5FLAG (natural protein)
chain: B2 chain 3
[4]
  binding: binds
